Common to all, as to assay: co-IP; WNT5A-V5 and HA-tagged APOJ or APOE overexpressed in HEK293T cells; lysis buffer 50 mM Tris pH 7.6, 200 mM NaCl, 1 mM EDTA, 0.5% NP40; immunoprecipitation with anti-V5 or anti-HA antibody or control IgG on DynaBeads, 4 °C; western blot
On the technique in general: Immunoblotting shows a protein as a band on a membrane.

Protein sequences, listed by entry. Tags and fused reporters are not part of them. Residues count along the entry.
UniProt Q06890, residues 22-448: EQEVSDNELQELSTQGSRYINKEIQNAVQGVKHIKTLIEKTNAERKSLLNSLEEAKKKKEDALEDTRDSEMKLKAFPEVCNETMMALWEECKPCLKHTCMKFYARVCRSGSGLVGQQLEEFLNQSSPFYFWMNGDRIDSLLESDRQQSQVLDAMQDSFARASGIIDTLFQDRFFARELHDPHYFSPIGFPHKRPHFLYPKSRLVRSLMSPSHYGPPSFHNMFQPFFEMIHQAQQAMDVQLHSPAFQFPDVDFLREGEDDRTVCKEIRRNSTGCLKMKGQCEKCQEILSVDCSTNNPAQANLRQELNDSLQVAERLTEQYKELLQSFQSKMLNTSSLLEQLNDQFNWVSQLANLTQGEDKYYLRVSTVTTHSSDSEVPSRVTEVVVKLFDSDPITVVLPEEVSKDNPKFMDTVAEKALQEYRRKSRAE

Assay [1] concerns the target T1, mouse V5-tagged WNT5A (mouse) (UniProt P22725).
T1 sequence: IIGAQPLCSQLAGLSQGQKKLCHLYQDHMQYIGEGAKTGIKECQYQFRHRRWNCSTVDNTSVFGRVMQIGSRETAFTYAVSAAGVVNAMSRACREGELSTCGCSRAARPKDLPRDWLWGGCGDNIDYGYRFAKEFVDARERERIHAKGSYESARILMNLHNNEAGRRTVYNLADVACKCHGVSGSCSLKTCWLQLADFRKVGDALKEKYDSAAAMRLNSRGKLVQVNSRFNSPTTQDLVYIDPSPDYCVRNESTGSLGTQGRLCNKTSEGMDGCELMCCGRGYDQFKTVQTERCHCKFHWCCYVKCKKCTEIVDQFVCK

Assay [2] concerns the target T2, HA-tagged APOE (Apolipoprotein E) (UniProt P08226).
T2 sequence: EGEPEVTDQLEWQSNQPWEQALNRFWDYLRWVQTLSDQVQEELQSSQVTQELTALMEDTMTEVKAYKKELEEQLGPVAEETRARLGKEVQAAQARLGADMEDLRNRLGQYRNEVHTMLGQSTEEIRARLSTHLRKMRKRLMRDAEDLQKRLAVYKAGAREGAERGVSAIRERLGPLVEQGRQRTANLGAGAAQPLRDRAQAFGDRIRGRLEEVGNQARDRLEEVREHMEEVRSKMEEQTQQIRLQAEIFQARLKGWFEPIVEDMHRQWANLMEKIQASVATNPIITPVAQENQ

Assay [3] deals with HA-tagged APOJ (Apolipoprotein J, also known as Clusterin) (UniProt Q06890).

Results are given in words; binding and its absence hold for the method and conditions named. Binding seen in cells or lysates may run through a third protein. Some results given as binding are weak or reduced against the parent protein; the word gives no strength. Where a sequence is shown, tags or fusion partners need not be part of it.

Take “HA-tagged APOJ (Apolipoprotein J, also known as Clusterin) (from UniProt Q06890 22-448)”: the binding entry in assay [1] is listed as “binds”.

B1: HA-tagged APOE (Apolipoprotein E) (protein, UniProt P08226 19-311)
chain: T2 sequence
Take B1: the binding entry in assay [1] was “binds”.

B2: recombinant WNT5A (ligand, UniProt P22725 62-380, looked up)
chain: T1 sequence
notes: recombinant WNT5A, R&D Systems; 'P22725' is printed where a catalogue number would stand; elsewhere the catalogue number 645-WN-010 is printed; WNT5A'; also called rcWNT5A; rcWnt5a; source: bought: R&D Systems
As to B2, the binding result in assay [2] and in assay [3] was “binds” in each case.
